Target: 5-HT2A (Homo sapiens, UniProt P28223)
Test: receptor affinity
Type: binding
Details: high affinity

The chains behind the UniProt entries cited, without tags or fusion partners.
UniProt P28223, whole entry, species assumed: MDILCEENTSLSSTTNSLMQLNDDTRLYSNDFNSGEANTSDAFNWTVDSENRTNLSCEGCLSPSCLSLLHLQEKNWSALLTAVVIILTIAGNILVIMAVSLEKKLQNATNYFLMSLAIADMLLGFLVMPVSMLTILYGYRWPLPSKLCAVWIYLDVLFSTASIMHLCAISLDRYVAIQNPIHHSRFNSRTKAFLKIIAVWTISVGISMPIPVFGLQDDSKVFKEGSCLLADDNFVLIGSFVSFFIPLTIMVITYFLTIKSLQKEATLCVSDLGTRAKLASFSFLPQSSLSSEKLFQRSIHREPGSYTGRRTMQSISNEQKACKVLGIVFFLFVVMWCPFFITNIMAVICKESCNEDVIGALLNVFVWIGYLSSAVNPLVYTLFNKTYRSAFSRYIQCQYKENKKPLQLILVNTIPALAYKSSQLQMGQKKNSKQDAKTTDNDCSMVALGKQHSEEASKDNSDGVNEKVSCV

Compound `COc1cc(C(C)=O)ccc1OCCCN1CCC(c2noc3cc(F)ccc23)CC1` [Iloperidone, 1-[4-[3-[4-(6-flouro-1,2-benzisoxazol-3-yl)-1-piperidinyl]propoxy]-3-methoxyphenyl]ethanone] has a Kd of under 10 nM.
